Assay: Tape durability test (friction coefficient, still durability, shuttle durability)
Conditions: for Still durability after heating/min / Friction coefficient after 100 runs after heating / Shuttle durability after heating/times: after heating test 10 minutes at 100° C.
[1] = −5° C., decay time of output by −3 dB in paused state
[2] = −5° C., shuttles until output reduced by 3 dB

Compound	Still durability/min (40° C., 30% RH)	Still durability after heating/min (40° C., 30% RH)	Friction coefficient after 100 runs (40° C., 90% RH)	Shuttle durability/times (40° C., 90% RH)	Friction coefficient after 100 runs after heating (40° C., 90% RH)	Shuttle durability after heating/times (40° C., 90% RH)	Friction coefficient after 100 runs (−5° C.)	Friction coefficient after 100 runs after heating (−5° C.)	Shuttle durability after heating/times (−5° C.)	Still durability after heating/min (−5° C.)	Still durability/min [1]	Shuttle durability/times [2]
CCCCCCCCCCCCCCCCCC[n+]1ccn(CCCO)c1CCCCCCCCCCCCCCCCC.O=S(=O)([N-]S(=O)(=O)C(F)(F)C(F)(F)C(F)(F)C(F)(F)F)C(F)(F)C(F)(F)C(F)(F)C(F)(F)F [Example 8A, bis(nonafluorobutanesulfonyl)imide-1-3′hydroxypropyl-2-heptadecyl-3-octadecylimidazolium]	>60 min	>60 min	0.22	>200 times	0.23	>200 times	0.21	0.21	>200 times	>60 min	>60 min	>200 times
bis(nonafluorobutanesulfonyl)imide-1-dodecyl-2-undecyl-3-3′hydroxypropyloctadecylimidazolium [Example 7A]	>60 min	>60 min	0.25	>200 times	0.26	>200 times	0.24	0.24	>200 times	>60 min	>60 min	>200 times
nonafluorobutanesulfonic acid-N,N,N-trimethyloctadecylammonium [Comparative Example 9A]	>60 min	>60 min	0.19	>200 times	0.19	>200 times	0.18	0.19	>200 times	>60 min	>60 min	>200 times

Reference: patent publication US20190051326A1, “Ionic Liquid, Lubricant, and Magnetic Recording Medium” (priority 2016, published 2019)
